These are yes or no findings as the source states them, for the method shown. In cells and extracts the contact can be indirect. Some binding calls cover weakened binding; strength is not graded here.
Experiments:
[1] = biological target: Ataxia Telangiectasia Mutated (ATM), in cells (human (endogenous in PC-3)) (UniProt Q13315); test: proximity ligation; In Situ Proximity Ligation Assay in cells, foci after IR
HA-SPOP wild type = HA-SPOP wild type (UniProt O43791); test: co-IP; PC-3 cells transfected with vector, wild type or mutant HA-SPOP constructs, treated with 5Gy of IR; pull-down of HA, blots of MCM5 and MCM3

Sequences of proteins named here, by UniProt entry; tags and fusion partners are left off. A change or cut given only in a name is not applied to a line headed by its entry.
UniProt Q13315: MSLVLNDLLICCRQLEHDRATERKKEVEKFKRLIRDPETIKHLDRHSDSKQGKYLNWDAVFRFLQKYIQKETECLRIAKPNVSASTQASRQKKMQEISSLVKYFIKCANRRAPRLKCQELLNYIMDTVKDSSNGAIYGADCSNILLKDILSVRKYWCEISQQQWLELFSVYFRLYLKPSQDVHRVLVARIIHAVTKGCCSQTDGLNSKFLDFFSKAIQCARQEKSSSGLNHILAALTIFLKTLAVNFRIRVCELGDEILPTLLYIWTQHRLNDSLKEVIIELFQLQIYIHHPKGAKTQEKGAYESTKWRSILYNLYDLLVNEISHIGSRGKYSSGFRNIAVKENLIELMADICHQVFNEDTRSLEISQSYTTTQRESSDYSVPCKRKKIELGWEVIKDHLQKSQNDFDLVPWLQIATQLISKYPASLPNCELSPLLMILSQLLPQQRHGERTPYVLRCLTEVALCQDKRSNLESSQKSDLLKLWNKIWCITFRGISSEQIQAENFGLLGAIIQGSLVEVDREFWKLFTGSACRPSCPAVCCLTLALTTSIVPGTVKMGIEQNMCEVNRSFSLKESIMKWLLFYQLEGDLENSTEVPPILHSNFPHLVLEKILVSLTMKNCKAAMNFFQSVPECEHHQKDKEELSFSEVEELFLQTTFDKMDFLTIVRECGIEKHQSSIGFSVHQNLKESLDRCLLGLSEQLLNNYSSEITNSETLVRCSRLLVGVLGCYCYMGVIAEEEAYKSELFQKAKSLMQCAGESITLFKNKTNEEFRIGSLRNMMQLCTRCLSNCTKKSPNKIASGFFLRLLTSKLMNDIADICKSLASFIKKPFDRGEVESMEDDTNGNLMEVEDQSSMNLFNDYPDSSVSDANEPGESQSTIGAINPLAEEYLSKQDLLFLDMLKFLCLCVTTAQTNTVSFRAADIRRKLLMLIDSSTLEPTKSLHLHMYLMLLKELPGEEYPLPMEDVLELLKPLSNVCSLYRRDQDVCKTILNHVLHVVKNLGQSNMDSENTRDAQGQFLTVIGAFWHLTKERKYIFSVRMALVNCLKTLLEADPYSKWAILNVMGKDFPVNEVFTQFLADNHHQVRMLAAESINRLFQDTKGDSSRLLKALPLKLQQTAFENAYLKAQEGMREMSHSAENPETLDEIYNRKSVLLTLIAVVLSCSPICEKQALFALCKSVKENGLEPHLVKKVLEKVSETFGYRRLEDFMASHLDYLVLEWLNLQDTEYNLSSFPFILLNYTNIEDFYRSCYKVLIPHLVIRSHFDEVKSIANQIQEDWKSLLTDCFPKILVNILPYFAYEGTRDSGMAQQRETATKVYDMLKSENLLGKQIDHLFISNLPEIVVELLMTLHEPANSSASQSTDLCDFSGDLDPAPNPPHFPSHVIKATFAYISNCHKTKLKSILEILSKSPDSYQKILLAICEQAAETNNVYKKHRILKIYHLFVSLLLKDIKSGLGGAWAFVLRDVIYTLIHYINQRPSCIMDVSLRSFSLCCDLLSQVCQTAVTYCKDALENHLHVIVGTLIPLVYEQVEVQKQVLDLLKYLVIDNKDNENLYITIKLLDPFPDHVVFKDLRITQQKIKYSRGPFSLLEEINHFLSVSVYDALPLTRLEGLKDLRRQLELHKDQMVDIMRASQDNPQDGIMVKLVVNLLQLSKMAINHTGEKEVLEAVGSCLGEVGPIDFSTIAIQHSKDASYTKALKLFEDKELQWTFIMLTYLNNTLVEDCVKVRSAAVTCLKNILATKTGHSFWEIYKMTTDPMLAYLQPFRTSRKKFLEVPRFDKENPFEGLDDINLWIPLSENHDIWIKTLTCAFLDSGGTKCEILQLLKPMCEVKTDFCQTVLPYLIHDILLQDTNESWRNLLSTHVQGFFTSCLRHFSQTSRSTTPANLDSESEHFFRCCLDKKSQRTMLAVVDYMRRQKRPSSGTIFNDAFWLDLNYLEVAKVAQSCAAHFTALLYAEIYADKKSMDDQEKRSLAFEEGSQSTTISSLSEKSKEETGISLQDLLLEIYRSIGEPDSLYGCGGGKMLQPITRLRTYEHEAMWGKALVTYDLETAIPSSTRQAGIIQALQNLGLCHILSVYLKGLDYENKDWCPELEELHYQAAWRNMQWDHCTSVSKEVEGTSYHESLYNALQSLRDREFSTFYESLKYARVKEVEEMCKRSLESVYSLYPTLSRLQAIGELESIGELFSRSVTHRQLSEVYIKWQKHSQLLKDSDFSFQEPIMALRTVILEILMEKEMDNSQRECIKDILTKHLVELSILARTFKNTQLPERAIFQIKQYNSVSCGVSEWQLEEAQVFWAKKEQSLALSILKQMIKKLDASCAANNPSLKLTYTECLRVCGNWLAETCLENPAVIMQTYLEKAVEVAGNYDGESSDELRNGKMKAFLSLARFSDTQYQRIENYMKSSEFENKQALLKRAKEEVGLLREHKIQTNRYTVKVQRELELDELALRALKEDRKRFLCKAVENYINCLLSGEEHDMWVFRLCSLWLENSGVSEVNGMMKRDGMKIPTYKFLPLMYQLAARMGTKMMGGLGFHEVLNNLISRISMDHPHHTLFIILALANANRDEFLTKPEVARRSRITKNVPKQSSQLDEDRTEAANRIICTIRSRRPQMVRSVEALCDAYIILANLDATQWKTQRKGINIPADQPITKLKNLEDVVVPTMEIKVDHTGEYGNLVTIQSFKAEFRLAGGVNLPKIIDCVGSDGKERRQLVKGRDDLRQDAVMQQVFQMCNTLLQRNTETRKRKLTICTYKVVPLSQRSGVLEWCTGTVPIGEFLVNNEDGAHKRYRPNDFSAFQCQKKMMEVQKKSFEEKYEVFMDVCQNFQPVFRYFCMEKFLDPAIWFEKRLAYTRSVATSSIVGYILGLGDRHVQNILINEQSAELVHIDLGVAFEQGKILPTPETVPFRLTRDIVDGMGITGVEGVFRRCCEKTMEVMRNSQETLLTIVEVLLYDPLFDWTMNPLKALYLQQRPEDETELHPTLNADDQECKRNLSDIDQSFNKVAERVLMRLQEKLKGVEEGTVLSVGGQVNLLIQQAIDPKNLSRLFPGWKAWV
UniProt O43791: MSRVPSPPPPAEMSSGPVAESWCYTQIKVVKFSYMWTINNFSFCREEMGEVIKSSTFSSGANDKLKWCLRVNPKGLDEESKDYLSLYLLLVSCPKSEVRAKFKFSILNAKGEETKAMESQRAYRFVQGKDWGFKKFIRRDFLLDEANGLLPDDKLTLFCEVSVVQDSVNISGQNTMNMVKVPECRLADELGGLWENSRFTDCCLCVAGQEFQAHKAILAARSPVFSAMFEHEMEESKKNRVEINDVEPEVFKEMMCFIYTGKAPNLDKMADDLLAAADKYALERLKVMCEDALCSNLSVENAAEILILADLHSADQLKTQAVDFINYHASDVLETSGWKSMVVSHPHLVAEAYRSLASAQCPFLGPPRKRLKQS

SPOP, wild-type form (proximity ligation assay) (from UniProt O43791 1-374)
binding [1]: binds

B1: Mini Chromosome Maintenance 5 (MCM5) (protein, UniProt P33992 1-734)
chain: MSGFDDPGIFYSDSFGGDAQADEGQARKSQLQRRFKEFLRQYRVGTDRTGFTFKYRDELKRHYNLGEYWIEVEMEDLASFDEDLADYLYKQPAEHLQLLEEAAKEVADEVTRPRPSGEEVLQDIQVMLKSDASPSSIRSLKSDMMSHLVKIPGIIIAASAVRAKATRISIQCRSCRNTLTNIAMRPGLEGYALPRKCNTDQAGRPKCPLDPYFIMPDKCKCVDFQTLKLQELPDAVPHGEMPRHMQLYCDRYLCDKVVPGNRVTIMGIYSIKKFGLTTSRGRDRVGVGIRSSYIRVLGIQVDTDGSGRSFAGAVSPQEEEEFRRLAALPNVYEVISKSIAPSIFGGTDMKKAIACLLFGGSRKRLPDGLTRRGDINLLMLGDPGTAKSQLLKFVEKCSPIGVYTSGKGSSAAGLTASVMRDPSSRNFIMEGGAMVLADGGVVCIDEFDKMREDDRVAIHEAMEQQTISIAKAGITTTLNSRCSVLAAANSVFGRWDETKGEDNIDFMPTILSRFDMIFIVKDEHNEERDVMLAKHVITLHVSALTQTQAVEGEIDLAKLKKFIAYCRVKCGPRLSAEAAEKLKNRYIIMRSGARQHERDSDRRSSIPITVRQLEAIVRIAEALSKMKLQPFATEADVEEALRLFQVSTLDAALSGTLSGVEGFTSQEDQEMLSRIEKQLKRRFAIGSQVSEHSIIKDFTKQKYPEHAIHKVLQLMLRRGEIQHRMQRKVLYRLK
binding (HA-SPOP wild type): binds

B2: MCM3 (protein, UniProt P25205 1-808)
chain: MAGTVVLDDVELREAQRDYLDFLDDEEDQGIYQSKVRELISDNQYRLIVNVNDLRRKNEKRANRLLNNAFEELVAFQRALKDFVASIDATYAKQYEEFYVGLEGSFGSKHVSPRTLTSCFLSCVVCVEGIVTKCSLVRPKVVRSVHYCPATKKTIERRYSDLTTLVAFPSSSVYPTKDEENNPLETEYGLSVYKDHQTITIQEMPEKAPAGQLPRSVDVILDDDLVDKAKPGDRVQVVGTYRCLPGKKGGYTSGTFRTVLIACNVKQMSKDAQPSFSAEDIAKIKKFSKTRSKDIFDQLAKSLAPSIHGHDYVKKAILCLLLGGVERDLENGSHIRGDINILLIGDPSVAKSQLLRYVLCTAPRAIPTTGRGSSGVGLTAAVTTDQETGERRLEAGAMVLADRGVVCIDEFDKMSDMDRTAIHEVMEQGRVTIAKAGIHARLNARCSVLAAANPVYGRYDQYKTPMENIGLQDSLLSRFDLLFIMLDQMDPEQDREISDHVLRMHRYRAPGEQDGDAMPLGSAVDILATDDPNFSQEDQQDTQIYEKHDNLLHGTKKKKEKMVSAAFMKKYIHVAKIIKPVLTQESATYIAEEYSRLRSQDSMSSDTARTSPVTARTLETLIRLATAHAKARMSKTVDLQDAEEAVELVQYAYFKKVLEKEKKRKKRSEDESETEDEEEKSQEDQEQKRKRRKTRQPDAKDGDSYDPYDFSDTEEEMPQVHTPKTADSQETKESQKVELSESRLKAFKVALLDVFREAHAQSIGMNRLTESINRDSEEPFSSVEIQAALSKMQDDNQVMVSEGIIFLI
binding (HA-SPOP wild type): binds

— PMC7809020
